Measured data: PubChem BioAssay AID1508597 (Cure First, 2020)
Shown is an unselected part of the about 2,100 reagents, in one setting of the screen. 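Calls flag viability under 80% in either arm, not effects specific to rucaparib; the reference for percent is not stated.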 Unmarked entries are inactive. A reagent listed more than once was tested more than once; the source does not tell the runs apart. Not stated in the record: the 100% reference.

Purpose: 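Survival screen with siRNA in ovarian cancer cells derived from patients, with or without rucaparib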 (primary screen)
System: human ovarian carcinoma lines grown from tumours: OCI-P5x (papillary serous) and OCI-C5x (clear cell)
Reagent: siRNA pool against human genes, 1.25 pmol siRNA per well
Timing: 72 h or 96 h, depending on the cell culture
Treatment: rucaparib 20 µM (about IC30) or vehicle, present until read-out
Rucaparib or vehicle: Vehicle
Cell line: OCI-C5x (clear cell)
Measurement: 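ATP luminescence measured at 72 or 96 h according to the culture, then normalised and expressed as percent viability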
Reading the numbers: viability, normalised: higher = more viable cells remaining
Active means: 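Active when normalised viability falls below 80 percent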
Meaning of the calls: active = viability under 80%; inactive = viability 80% or more

target	technical replicate	viability, normalised (%)
G6PC1 (GeneID 2538)	1	51.8 (active)
G6PC1 (GeneID 2538)	2	42 (active)
G6PC1 (GeneID 2538)	3	54.1 (active)
BRD10 (GeneID 158358)	1	28.6 (active)
BRD10 (GeneID 158358)	2	23 (active)
BRD10 (GeneID 158358)	3	37.4 (active)
H4C3 (GeneID 8364)	1	41.4 (active)
H4C3 (GeneID 8364)	2	41.9 (active)
H4C3 (GeneID 8364)	3	34.4 (active)
RIPK2 (GeneID 8767)	1	39.7 (active)
RIPK2 (GeneID 8767)	2	57.2 (active)
RIPK2 (GeneID 8767)	3	57.5 (active)
MED25 (GeneID 81857)	1	39.9 (active)
MED25 (GeneID 81857)	2	39.4 (active)
MED25 (GeneID 81857)	3	48 (active)
CDKN2A (GeneID 1029)	1	40.7 (active)
CDKN2A (GeneID 1029)	2	44 (active)
CDKN2A (GeneID 1029)	3	34 (active)
PLK4 (GeneID 10733)	1	72.5 (active)
PLK4 (GeneID 10733)	2	51.1 (active)
PLK4 (GeneID 10733)	3	54.3 (active)

5 consecutive reagents from above:
target	technical replicate	viability, normalised (%)
H4C3 (GeneID 8364)	3	34.4 (active)
RIPK2 (GeneID 8767)	1	39.7 (active)
RIPK2 (GeneID 8767)	2	57.2 (active)
RIPK2 (GeneID 8767)	3	57.5 (active)
MED25 (GeneID 81857)	1	39.9 (active)

Further entries follow.
target	technical replicate	viability, normalised (%)
KDM2A (GeneID 22992)	1	50.7 (active)
KDM2A (GeneID 22992)	2	57.7 (active)
KDM2A (GeneID 22992)	3	60.6 (active)
TAOK2 (GeneID 9344)	1	100
TAOK2 (GeneID 9344)	2	75.4 (active)
TAOK2 (GeneID 9344)	3	62.2 (active)
RNF17 (GeneID 56163)	1	38.6 (active)
RNF17 (GeneID 56163)	2	39.1 (active)
RNF17 (GeneID 56163)	3	47.9 (active)
ULK3 (GeneID 25989)	1	59.9 (active)
ULK3 (GeneID 25989)	2	59.1 (active)
ULK3 (GeneID 25989)	3	51.3 (active)
NME7 (GeneID 29922)	1	54.3 (active)
NME7 (GeneID 29922)	1	47.6 (active)
NME7 (GeneID 29922)	2	53 (active)
NME7 (GeneID 29922)	2	61.6 (active)
NME7 (GeneID 29922)	3	50 (active)
NME7 (GeneID 29922)	3	66.1 (active)
TGM3 (GeneID 7053)	1	48 (active)
TGM3 (GeneID 7053)	2	61 (active)
TGM3 (GeneID 7053)	3	57.2 (active)
CLDN23 (GeneID 137075)	1	32.2 (active)
CLDN23 (GeneID 137075)	2	39.8 (active)
CLDN23 (GeneID 137075)	3	46.5 (active)
KTI12 (GeneID 112970)	1	61.3 (active)
KTI12 (GeneID 112970)	2	71.1 (active)
KTI12 (GeneID 112970)	3	70.2 (active)
ARSA (GeneID 410)	1	40 (active)
ARSA (GeneID 410)	2	43.2 (active)
ARSA (GeneID 410)	3	46.5 (active)
OXSM (GeneID 54995)	1	59.8 (active)
OXSM (GeneID 54995)	2	49.7 (active)
OXSM (GeneID 54995)	3	58.7 (active)
RALB (GeneID 5899)	1	92.4
RALB (GeneID 5899)	2	64.3 (active)
RALB (GeneID 5899)	3	48.3 (active)
